Measurements published in PMC5045598.
Read-outs that look alike come from different tables or passages of the source. Results are given in words; binding and its absence hold for the method and conditions named. In cells and extracts the contact can be indirect. A yes stands for co-enrichment or nearness to the bait. Other partners may have been found. For some of these results: A no says only that the protein was not detected with the bait.

Protein sequences, listed by entry. Tags and fused reporters are not part of them.
UniProt Q92522: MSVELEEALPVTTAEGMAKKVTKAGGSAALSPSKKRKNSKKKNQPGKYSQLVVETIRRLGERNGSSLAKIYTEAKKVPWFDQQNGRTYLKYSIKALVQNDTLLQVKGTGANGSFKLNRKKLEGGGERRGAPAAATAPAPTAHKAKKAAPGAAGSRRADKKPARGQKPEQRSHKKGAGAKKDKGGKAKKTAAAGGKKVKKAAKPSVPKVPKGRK
UniProt Q02539: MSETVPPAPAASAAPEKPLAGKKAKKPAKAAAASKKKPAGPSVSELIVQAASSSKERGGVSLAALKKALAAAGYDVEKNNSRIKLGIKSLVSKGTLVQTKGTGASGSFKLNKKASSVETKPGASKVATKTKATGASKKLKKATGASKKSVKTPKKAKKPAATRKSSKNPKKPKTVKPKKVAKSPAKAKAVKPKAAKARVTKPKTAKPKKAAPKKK
UniProt P06748: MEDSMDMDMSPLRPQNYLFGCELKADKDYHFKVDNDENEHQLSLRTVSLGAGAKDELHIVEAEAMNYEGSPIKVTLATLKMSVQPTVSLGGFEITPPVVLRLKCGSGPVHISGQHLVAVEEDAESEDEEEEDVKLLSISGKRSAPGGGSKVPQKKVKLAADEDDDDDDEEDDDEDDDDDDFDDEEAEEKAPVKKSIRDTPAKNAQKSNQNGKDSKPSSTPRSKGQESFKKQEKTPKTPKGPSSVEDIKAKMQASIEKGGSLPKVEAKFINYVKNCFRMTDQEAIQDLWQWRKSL
UniProt Q70CQ2: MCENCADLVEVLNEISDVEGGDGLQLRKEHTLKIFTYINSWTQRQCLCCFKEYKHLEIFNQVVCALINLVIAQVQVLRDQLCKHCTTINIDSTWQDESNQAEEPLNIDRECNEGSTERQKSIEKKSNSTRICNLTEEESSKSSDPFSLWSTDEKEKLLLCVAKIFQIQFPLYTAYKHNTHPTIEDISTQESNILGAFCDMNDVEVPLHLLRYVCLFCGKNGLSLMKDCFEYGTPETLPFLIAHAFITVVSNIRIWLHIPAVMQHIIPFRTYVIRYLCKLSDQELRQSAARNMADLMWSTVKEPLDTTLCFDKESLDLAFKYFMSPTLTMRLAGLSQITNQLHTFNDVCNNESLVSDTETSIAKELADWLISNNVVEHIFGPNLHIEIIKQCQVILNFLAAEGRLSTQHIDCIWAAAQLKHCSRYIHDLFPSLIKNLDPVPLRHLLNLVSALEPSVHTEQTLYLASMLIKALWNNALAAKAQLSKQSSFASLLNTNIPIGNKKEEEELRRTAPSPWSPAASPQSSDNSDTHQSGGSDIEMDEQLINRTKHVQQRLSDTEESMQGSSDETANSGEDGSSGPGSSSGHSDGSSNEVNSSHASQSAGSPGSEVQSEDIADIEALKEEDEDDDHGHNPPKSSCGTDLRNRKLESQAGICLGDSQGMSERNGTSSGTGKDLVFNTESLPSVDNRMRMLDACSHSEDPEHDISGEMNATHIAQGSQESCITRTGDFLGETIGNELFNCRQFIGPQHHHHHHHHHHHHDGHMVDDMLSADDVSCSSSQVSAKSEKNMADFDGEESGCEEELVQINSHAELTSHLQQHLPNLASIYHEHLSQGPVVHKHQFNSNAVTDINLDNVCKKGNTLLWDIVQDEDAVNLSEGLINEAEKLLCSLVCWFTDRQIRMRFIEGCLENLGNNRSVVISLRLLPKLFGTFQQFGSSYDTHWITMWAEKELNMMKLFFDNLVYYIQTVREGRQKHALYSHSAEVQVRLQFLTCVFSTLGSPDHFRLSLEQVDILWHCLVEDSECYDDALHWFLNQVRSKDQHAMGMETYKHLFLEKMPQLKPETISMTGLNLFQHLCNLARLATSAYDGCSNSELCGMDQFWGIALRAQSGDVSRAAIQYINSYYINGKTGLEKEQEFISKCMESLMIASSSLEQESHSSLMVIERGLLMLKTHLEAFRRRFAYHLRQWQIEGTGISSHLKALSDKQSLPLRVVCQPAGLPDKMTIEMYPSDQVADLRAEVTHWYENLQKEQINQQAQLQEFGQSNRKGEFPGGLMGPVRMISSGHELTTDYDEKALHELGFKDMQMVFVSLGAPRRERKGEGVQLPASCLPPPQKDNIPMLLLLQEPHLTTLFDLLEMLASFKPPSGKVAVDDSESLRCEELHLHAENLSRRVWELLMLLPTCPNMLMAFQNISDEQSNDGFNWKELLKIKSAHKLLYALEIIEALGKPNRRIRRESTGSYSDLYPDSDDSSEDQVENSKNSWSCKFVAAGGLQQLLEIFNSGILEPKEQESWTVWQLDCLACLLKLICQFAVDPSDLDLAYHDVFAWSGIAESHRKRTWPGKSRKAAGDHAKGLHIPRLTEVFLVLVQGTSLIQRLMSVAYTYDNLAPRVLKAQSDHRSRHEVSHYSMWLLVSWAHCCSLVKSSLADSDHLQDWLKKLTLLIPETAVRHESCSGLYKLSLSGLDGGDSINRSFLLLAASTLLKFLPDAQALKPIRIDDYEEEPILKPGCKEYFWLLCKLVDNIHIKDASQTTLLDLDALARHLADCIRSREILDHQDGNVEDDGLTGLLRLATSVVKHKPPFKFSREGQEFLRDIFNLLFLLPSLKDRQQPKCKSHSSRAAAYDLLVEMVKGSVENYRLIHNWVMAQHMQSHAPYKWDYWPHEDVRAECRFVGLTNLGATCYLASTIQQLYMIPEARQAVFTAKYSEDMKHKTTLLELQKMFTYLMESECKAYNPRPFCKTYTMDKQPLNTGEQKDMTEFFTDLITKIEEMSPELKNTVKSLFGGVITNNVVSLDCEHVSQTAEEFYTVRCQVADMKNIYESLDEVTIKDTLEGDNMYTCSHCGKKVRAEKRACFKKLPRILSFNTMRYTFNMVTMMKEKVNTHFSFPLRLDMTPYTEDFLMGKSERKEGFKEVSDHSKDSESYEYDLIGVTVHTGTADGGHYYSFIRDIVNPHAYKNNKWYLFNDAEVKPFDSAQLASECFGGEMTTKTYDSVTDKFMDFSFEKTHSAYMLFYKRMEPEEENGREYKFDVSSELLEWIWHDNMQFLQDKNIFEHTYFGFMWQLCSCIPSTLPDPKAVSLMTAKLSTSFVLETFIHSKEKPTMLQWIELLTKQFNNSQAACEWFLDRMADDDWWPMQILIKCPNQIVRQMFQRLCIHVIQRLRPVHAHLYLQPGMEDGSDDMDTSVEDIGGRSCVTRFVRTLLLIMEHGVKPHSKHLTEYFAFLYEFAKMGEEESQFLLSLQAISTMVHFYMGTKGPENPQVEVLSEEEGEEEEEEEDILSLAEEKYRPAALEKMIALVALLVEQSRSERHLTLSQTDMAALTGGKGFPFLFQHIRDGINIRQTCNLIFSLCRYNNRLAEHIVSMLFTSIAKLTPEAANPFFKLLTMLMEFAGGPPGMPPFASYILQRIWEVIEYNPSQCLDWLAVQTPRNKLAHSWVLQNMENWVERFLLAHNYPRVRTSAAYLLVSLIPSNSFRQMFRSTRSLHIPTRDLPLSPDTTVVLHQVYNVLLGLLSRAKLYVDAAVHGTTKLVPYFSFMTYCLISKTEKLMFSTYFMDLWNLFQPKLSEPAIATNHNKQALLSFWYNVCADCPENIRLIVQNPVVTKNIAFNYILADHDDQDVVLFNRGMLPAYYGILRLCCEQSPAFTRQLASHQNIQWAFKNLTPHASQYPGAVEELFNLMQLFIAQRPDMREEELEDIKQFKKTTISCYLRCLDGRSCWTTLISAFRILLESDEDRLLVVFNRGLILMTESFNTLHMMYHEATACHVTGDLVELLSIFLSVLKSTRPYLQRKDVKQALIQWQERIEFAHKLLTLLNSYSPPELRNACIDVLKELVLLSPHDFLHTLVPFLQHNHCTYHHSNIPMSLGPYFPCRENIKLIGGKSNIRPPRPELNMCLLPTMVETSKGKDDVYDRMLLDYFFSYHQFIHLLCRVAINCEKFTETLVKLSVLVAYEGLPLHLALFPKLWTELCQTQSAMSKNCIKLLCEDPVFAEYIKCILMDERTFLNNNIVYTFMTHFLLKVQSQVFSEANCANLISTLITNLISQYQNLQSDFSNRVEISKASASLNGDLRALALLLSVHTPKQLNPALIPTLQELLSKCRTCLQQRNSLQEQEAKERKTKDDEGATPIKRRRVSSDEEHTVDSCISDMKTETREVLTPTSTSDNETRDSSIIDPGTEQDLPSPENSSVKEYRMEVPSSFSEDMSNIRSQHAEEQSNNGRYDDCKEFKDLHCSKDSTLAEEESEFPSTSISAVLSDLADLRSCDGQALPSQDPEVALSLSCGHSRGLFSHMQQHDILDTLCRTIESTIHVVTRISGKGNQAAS
UniProt P49321: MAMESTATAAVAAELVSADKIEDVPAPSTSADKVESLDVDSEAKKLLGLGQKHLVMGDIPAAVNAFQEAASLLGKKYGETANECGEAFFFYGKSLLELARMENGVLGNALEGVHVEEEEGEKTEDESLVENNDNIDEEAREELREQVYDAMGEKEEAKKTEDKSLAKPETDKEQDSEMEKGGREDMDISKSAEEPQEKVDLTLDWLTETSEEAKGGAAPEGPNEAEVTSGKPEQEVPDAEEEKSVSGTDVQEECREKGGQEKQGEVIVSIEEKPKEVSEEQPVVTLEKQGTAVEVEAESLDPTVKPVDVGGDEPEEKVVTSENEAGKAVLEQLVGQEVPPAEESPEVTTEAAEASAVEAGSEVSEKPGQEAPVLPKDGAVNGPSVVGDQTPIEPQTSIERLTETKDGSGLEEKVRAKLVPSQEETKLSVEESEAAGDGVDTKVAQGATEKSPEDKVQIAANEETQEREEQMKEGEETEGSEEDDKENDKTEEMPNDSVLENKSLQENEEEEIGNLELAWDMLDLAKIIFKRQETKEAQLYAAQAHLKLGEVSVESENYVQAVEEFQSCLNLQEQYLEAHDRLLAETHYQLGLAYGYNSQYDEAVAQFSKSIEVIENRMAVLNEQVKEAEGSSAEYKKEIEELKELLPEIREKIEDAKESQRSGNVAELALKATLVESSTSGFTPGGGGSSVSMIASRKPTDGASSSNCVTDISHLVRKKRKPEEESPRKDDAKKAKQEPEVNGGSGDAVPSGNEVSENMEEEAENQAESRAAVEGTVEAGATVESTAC
UniProt P67809: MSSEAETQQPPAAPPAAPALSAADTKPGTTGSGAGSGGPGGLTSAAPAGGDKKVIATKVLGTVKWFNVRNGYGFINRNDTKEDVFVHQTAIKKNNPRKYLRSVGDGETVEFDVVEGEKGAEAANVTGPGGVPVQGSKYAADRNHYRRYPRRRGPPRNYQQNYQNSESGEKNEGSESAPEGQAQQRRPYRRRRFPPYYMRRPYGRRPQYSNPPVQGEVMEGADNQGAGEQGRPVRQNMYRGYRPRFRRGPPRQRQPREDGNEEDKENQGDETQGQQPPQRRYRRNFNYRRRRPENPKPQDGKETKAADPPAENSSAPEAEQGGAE
UniProt Q08945: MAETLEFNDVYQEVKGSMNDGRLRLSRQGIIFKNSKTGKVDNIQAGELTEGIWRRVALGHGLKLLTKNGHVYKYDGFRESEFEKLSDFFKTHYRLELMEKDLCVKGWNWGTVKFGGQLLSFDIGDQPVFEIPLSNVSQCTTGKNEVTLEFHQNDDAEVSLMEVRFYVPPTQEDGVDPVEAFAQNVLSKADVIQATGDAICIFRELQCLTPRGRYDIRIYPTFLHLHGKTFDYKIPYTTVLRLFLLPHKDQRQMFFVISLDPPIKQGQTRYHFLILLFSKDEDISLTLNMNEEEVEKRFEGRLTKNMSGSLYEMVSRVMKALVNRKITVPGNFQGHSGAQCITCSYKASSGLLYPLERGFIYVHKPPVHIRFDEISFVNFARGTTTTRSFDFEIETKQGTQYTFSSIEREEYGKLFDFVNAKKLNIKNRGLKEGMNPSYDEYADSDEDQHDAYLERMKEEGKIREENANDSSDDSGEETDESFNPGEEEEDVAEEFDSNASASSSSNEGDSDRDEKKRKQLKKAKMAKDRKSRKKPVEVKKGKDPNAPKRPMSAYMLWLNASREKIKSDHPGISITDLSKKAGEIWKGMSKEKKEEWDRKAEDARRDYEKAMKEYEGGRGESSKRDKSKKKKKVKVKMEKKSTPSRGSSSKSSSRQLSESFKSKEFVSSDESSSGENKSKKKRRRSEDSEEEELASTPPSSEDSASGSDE
UniProt Q9Y2T7: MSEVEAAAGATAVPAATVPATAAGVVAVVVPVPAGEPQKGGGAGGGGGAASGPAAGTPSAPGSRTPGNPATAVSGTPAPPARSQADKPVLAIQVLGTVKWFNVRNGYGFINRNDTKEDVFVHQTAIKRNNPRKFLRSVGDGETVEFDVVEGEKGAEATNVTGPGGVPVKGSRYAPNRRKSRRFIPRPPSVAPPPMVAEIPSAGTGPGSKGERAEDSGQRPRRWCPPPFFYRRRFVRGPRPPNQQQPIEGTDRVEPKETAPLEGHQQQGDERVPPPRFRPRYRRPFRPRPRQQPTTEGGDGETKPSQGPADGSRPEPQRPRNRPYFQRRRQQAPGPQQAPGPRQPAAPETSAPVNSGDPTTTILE

Columns and labels:
Assay in all cases: affinity purification with mass spectrometry; 6 × His-tagged H1 variant from doxycycline-induced U2OS soluble whole cell extract (NP40 lysis buffer: 150 mM NaCl, 50 mM Tris pH7.5, 10 % glycerol, 0.75 % NP40); Mono Q column, then Ni2+ chelating column (wash 50 mM imidazole, elution 500 mM imidazole); peak fractions by LC-MS/MS in duplicate; mock purification from untransfected U2OS Tet/On cells as negative control; H1.1 eluted in two Mono Q peaks, each purified separately
[1] = molecular target: 6 × His-tagged histone H1.2 (human) (UniProt P16403)
[2] = molecular target: 6 × His-tagged histone H1x (human) (UniProt Q92522)
[3] = molecular target: 6 × His-tagged histone H1.1 (human) (UniProt Q02539)
[4] = molecular target: 6 × His-tagged histone H1.1 (human) (UniProt Q02539); remark: listed apart in the source
[5] = molecular target: 6 × His-tagged histone H1x (human) (UniProt Q92522); remark: listed apart in the source

| Molecule | binding [1] | binding [2] | binding [3] | binding [4] | binding [5] |
| --- | --- | --- | --- | --- | --- |
| CHD7 (from UniProt Q9P2D1 1-2997) | binds |  |  |  |  |
| zinc finger protein ZNF16 (from UniProt P17020 1-682) |  | binds | binds |  |  |
| nucleophosmin (NPM1) (from UniProt P06748 1-294) | binds | binds | binds |  |  |
| nuclear pore complex protein Tpr (translocated promoter region) (from UniProt P12270 1-2363) | binds |  | binds |  |  |
| CDK11b (from UniProt P21127 1-795) | binds | binds | binds |  |  |
| PABP1 (from UniProt P11940 1-636) |  |  | binds |  |  |
| ubiquitin hydrolase UBP34 (from UniProt Q70CQ2 1-3546) | binds | binds | binds |  |  |
| Spt16, second subunit of FACT (from UniProt Q9Y5B9 1-1047) |  |  | binds |  |  |
| VIR (virilizer homolog) (from UniProt Q69YN4 1-1812) | binds | binds | binds |  |  |
| DDX21 (from UniProt Q9NR30 1-783) | binds |  |  |  |  |
| protein VPRBP (also known as DDB1-CUL4-associated factor 1, DCAF1) (from UniProt Q9Y4B6 1-1507) | binds |  |  |  |  |
| SET (from UniProt Q01105 1-290) |  |  | binds |  |  |
| NASP (nuclear antigenic sperm protein) (from UniProt P49321 1-788) | no binding | no binding | no binding |  |  |
| NDE1 (protein, UniProt Q9NXR1 1-335) MEDSGKTFSSEEEEANYWKDLAMTYKQRAENTQEELREFQEGSREYEAELETQLQQIETRNRDLLSENNRLRMELETIKEKFEVQHSEGYRQISALEDDLAQTKAIKDQLQKYIRELEQANDDLERAKRATIMSLEDFEQRLNQAIERNAFLESELDEKENLLESVQRLKDEARDLRQELAVQQKQEKPRTPMPSSVEAERTDTAVQATGSVPSTPIAHRGPSSSLNTPGSFRRGLDDSTGGTPLTPAARISALNIVGDLLRKVGALESKLASCRNLVYDQSPNRTGGPASGRSSKNRDGGERRPSSTSVPLGDKGLDTSCRWLSKSTTRSSSSC |  |  |  | binds |  |
| RNaseP subunit POP1 (protein, UniProt Q99575 1-1024) MSNAKERKHAKKMRNQPTNVTLSSGFVADRGVKHHSGGEKPFQAQKQEPHPGTSRQRQTRVNPHSLPDPEVNEQSSSKGMFRKKGGWKAGPEGTSQEIPKYITASTFAQARAAEISAMLKAVTQKSSNSLVFQTLPRHMRRRAMSHNVKRLPRRLQEIAQKEAEKAVHQKKEHSKNKCHKARRCHMNRTLEFNRRQKKNIWLETHIWHAKRFHMVKKWGYCLGERPTVKSHRACYRAMTNRCLLQDLSYYCCLELKGKEEEILKALSGMCNIDTGLTFAAVHCLSGKRQGSLVLYRVNKYPREMLGPVTFIWKSQRTPGDPSESRQLWIWLHPTLKQDILEEIKAACQCVEPIKSAVCIADPLPTPSQEKSQTELPDEKIGKKRKRKDDGENAKPIKKIIGDGTRDPCLPYSWISPTTGIIISDLTMEMNRFRLIGPLSHSILTEAIKAASVHTVGEDTEETPHRWWIETCKKPDSVSLHCRQEAIFELLGGITSPAEIPAGTILGLTVGDPRINLPQKKSKALPNPEKCQDNEKVRQLLLEGVPVECTHSFIWNQDICKSVTENKISDQDLNRMRSELLVPGSQLILGPHESKIPILLIQQPGKVTGEDRLGWGSGWDVLLPKGWGMAFWIPFIYRGVRVGGLKESAVHSQYKRSPNVPGDFPDCPAGMLFAEEQAKNLLEKYKRRPPAKRPNYVKLGTLAPFCCPWEQLTQDWESRVQAYEEPSVASSPNGKESDLRRSEVPCAPMPKKTHQPSDEVGTSIEHPREAEEVMDAGCQESAGPERITDQEASENHVAATGSHLCVLRSRKLLKQLSAWCGPSSEDSRGGRRAPGRGQQGLTREACLSILGHFPRALVWVSLSLLSKGSPEPHTMICVPAKEDFLQLHEDWHYCGPQESKHSDPFRSKILKQKEKKKREKRQKPGRASSDGPAGEEPVAGQEALTLGLWSGPLPRVTLHCSRTLLGFVTQGDFSMAVGCGEALGFVSLTGLLDMLSSQPAAQRGLVLLRPPASLQYRFARIAIEV |  |  |  | binds |  |
| SRSF3 (protein, UniProt P84103 1-164) MHRDSCPLDCKVYVGNLGNNGNKTELERAFGYYGPLRSVWVARNPPGFAFVEFEDPRDAADAVRELDGRTLCGCRVRVELSNGEKRSRNRGPPPSWGRRPRDDYRRRSPPPRRRSPRRRSFSRSRSRSLSRDRRRERSLSRERNHKPSRSFSRSRSRSRSNERK |  |  |  | binds | binds |
| ubiquitin carboxyl-terminal hydrolase 15 (USP15) (protein, UniProt Q9Y4E8 1-981) MAEGGAADLDTQRSDIATLLKTSLRKGDTWYLVDSRWFKQWKKYVGFDSWDKYQMGDQNVYPGPIDNSGLLKDGDAQSLKEHLIDELDYILLPTEGWNKLVSWYTLMEGQEPIARKVVEQGMFVKHCKVEVYLTELKLCENGNMNNVVTRRFSKADTIDTIEKEIRKIFSIPDEKETRLWNKYMSNTFEPLNKPDSTIQDAGLYQGQVLVIEQKNEDGTWPRGPSTPKSPGASNFSTLPKISPSSLSNNYNNMNNRNVKNSNYCLPSYTAYKNYDYSEPGRNNEQPGLCGLSNLGNTCFMNSAIQCLSNTPPLTEYFLNDKYQEELNFDNPLGMRGEIAKSYAELIKQMWSGKFSYVTPRAFKTQVGRFAPQFSGYQQQDCQELLAFLLDGLHEDLNRIRKKPYIQLKDADGRPDKVVAEEAWENHLKRNDSIIVDIFHGLFKSTLVCPECAKISVTFDPFCYLTLPLPMKKERTLEVYLVRMDPLTKPMQYKVVVPKIGNILDLCTALSALSGIPADKMIVTDIYNHRFHRIFAMDENLSSIMERDDIYVFEININRTEDTEHVIIPVCLREKFRHSSYTHHTGSSLFGQPFLMAVPRNNTEDKLYNLLLLRMCRYVKISTETEETEGSLHCCKDQNINGNGPNGIHEEGSPSEMETDEPDDESSQDQELPSENENSQSEDSVGGDNDSENGLCTEDTCKGQLTGHKKRLFTFQFNNLGNTDINYIKDDTRHIRFDDRQLRLDERSFLALDWDPDLKKRYFDENAAEDFEKHESVEYKPPKKPFVKLKDCIELFTTKEKLGAEDPWYCPNCKEHQQATKKLDLWSLPPVLVVHLKRFSYSRYMRDKLDTLVDFPINDLDMSEFLINPNAGPCRYNLIAVSNHYGGMGGGHYTAFAKNKDDGKWYYFDDSSVSTASEDQIVSKAAYVLFYQRQDTFSGTGFFPLDRETKGASAATGIPLESDEDSNDNDNDIENENCMHTN |  |  |  |  | binds |

More lines, now with the values ahead:

| binding [1] | binding [2] | binding [3] | binding [4] | binding [5] | Molecule |
| --- | --- | --- | --- | --- | --- |
| binds | binds | binds |  |  | ZC3H13 (from UniProt Q5T200 1-1668) |
| binds | binds | binds |  |  | YBX1 (from UniProt P67809 1-324) |
|  |  | binds |  |  | PABP3 (from UniProt Q9H361 1-631) |
| binds | binds | binds |  |  | SSRP subunit of the FACT complex (from UniProt Q08945 1-709) |
| binds | binds | binds |  |  | Y box-binding protein YB2 (from UniProt Q9Y2T7 1-364) |
| binds |  |  |  |  | TAF5 (from UniProt Q15542 1-800) |
|  | binds |  |  |  | insulin-like growth factor 2 mRNA-binding protein 3 (IGF2BP3) (from UniProt O00425 1-579) |
| binds |  |  |  |  | TIF1B (from UniProt Q13263 1-835) |
| binds | no binding | binds |  |  | CHD8 (from UniProt Q9HCK8 1-2581) |
